From PubChem BioAssay AID493014 (National Center for Advancing Translational Sciences (NCATS), 2011)
The list shows a part of the results. Shown are side measurements of this screen, not its main read-out; they come without a call. Most of these compounds were active or inconclusive in the main read-out, so they are no random draw. The note in brackets gives the kind of curve behind each potency; many fits are weak. Peptide text beside a SMILES is read from it. * marks the point of attachment. PhAc = O=C(Cc1ccccc1)*; OBn = c1ccc(CO*)cc1

Assay: qHTS Assay to Find Inhibitors of Chronic Active B-Cell Receptor Signaling
Conditions: ABC-DLBCL IkBa-CBG/CBR reporter, luminescence ratio (green luciferase fused to IkBa over red control in TMD8 lymphoma cells), 4 h
Summary of the method: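 Concentration-response series (up to 46 uM) were applied to TMD8 dual-reporter cells for 4 h at 37C with doxycycline. Green/red ratio, after filter-overlap correction, defined %Activity; red signal alone was normalised to basal cells and zero luminescence.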

[1] = measured here: CBR red luminescence, cell number
[2] = measured here: IkBa-CBG green luminescence

| SMILES | AC50 [1] | AC50 [2] |
| --- | --- | --- |
| CCCCc1ccc(NC(=O)C2CCN(S(C)(=O)=O)CC2)cc1 | 17.8 µM [rising, partial curve, poor fit] |  |
| O=C(Nc1nnc(Cc2ccccc2F)s1)c1ccccc1Cl | 6.31 µM [falling, single point] |  |
| CC(=O)N(C(C)=O)c1c(N2CCCC2)c2ccccc2oc1=O | 11.2 µM [falling, single point] |  |
| CCC(C)(C)c1ccc(OCCCC[n+]2ccccc2)c(C(C)(C)CC)c1 | 35.5 µM [falling, single point] |  |
| O=C(Nc1cccc(Cl)c1)OCCOc1ccccc1 | 1.41 µM [rising, partial curve, poor fit] |  |
| COc1ccc(S(=O)(=O)N2CCOCC2)cc1NC(=O)CSc1cccc[n+]1[O-] | 35.5 µM [falling, single point] |  |
| O=C(CNC(=O)Cc1ccccc1)NCC(=O)OCc1ccccc1 (PhAc-Gly-Gly-OBn) | 4.47 µM [rising, partial curve] |  |
| COC(=O)c1ccc(NC(=O)CC2C(=O)N(c3ccc(C)cc3)C(=O)N2CC(C)C)cc1 (configuration not stated) | 11.6 µM [rising, partial curve, poor fit] |  |
| CCCCCC(=O)NNC(=S)NC(=O)c1ccc([N+](=O)[O-])cc1 | 17.8 µM [rising, single point] |  |
| O=C(O)c1ccccc1C(=O)NNc1ccc(F)cc1F | 20 µM [rising, partial curve, poor fit] |  |
| CCc1ccc(NC(=O)c2ccc3c(=O)n4c(nc3c2)CCCCC4)cc1 | 14.1 µM [falling, single point] |  |
| COc1ccc(NC(=O)Nc2ccccc2C(=O)N2CCCC2)cc1 | 4.11 µM [falling, single point] |  |
| COc1ccccc1NC(=O)CSc1nc(=O)n2cc(C)ccc2n1 | 23.1 µM [falling, single point] |  |
| COc1ccccc1C(=O)NC(=O)COC(=O)C1CC1C (configuration not stated) | 14.6 µM [falling, partial curve] |  |
| COC(=O)c1ccc(Cn2c(O)c(N=NC(N)=S)c3ccccc32)o1 |  | 25.1 µM [falling, single point] |
| Cc1nnnn1/C(=C\c1ccccc1)C(=O)OCC(=O)N(C)C1CCS(=O)(=O)C1 (configuration not stated) | 15.8 µM [falling, single point] |  |
| Cc1cccc(C(=O)Nc2ccccc2C(=O)OCc2c(C)noc2C)c1 | 1.12 µM [rising, full curve, poor fit] |  |
| CCOC(=O)c1cc(-c2ccc(N3CCOCC3)cc2)nn1-c1ccccc1C(=O)O | 0.0891 µM [rising, full curve, poor fit] |  |
| COc1ccc2cc1Oc1ccc(cc1)CC1c3c(cc(OC)c4c3Oc3cc5c(cc3O4)CCNC5C2)CCN1C (configuration not stated) | 17.8 µM [falling, partial curve] |  |
| CCOC(=O)CSc1nnc(-c2ccco2)n1C | 25.1 µM [rising, single point] |  |
| COc1ccc(/C(C)=N/OC/C(O)=C(\C#N)c2nc3ccccc3[nH]2)cc1 | 4.61 µM [falling, partial curve] |  |

Single entries from the results shown.
Under AC50 [1], COc1ccc(/C(C)=N/OC/C(O)=C(\C#N)c2nc3ccccc3[nH]2)cc1 has 4.61 µM [falling, partial curve]
Under AC50 [1], COc1ccc(NC(=O)Nc2ccccc2C(=O)N2CCCC2)cc1 has 4.11 µM [falling, single point]

Additional compounds follow.

| SMILES | AC50 [1] | AC50 [2] |
| --- | --- | --- |
| COc1ccccc1NCC(=O)c1ccc(Cl)cc1 | 31.6 µM [rising, single point] |  |
| C/C(=N\NC(=S)NC1CCCCC1)c1ccc(Cl)c(Cl)c1 | 15.8 µM [falling, partial curve] |  |
| Cn1c(=O)c2c(nc(NCc3ccc4c(c3)OCO4)n2Cc2ccc(F)cc2)n(C)c1=O | 14.6 µM [falling, single point] |  |
| CCOC(=O)CC(NC(=O)CCc1c(C)nc2nc(C)nn2c1C)c1ccc(OC(C)C)cc1 (configuration not stated) | 0.501 µM [rising, full curve, poor fit] |  |
| O=C(CCc1ccccc1)NC(c1cccs1)c1cc(Cl)c2cccnc2c1O (configuration not stated) | 35.5 µM [rising, single point] |  |
| CCN1CCN(Cc2cccc(Oc3ccc(Cl)cc3)c2)CC1 | 29.1 µM [falling, single point] |  |
| COc1ccc(-c2csc(-c3cccs3)n2)cc1OC | 17.8 µM [rising, single point] |  |
| O=C(CNC(=O)C(c1ccccc1)c1ccccc1)N/N=C\c1cccc(O)c1 | 12.6 µM [falling, partial curve, poor fit] |  |
| Cc1ccc(-n2ncc(-c3nn[nH]n3)c2N)cc1 | 2.51 µM [rising, partial curve, poor fit] |  |
| C=C(C)CSc1nc2c(cc1C#N)CCC2 | 8.91 µM [rising, partial curve, poor fit] |  |
| COc1ccc(CCNC(=O)/C(C#N)=C/c2ccc(OCC(=O)NCC3CCCO3)cc2)cc1OC (configuration not stated) | 5.62 µM [rising, partial curve, poor fit] |  |
| O=C(Nc1ccc2c(c1)OCO2)c1cc2n(n1)C(C(F)(F)F)CC(c1ccccc1)N2 (configuration not stated) | 0.398 µM [rising, full curve, poor fit] |  |
| CCCCN(CCCC)C(=O)CSc1nnc2n(C)c(=O)c3c4c(sc3n12)CCCC4 | 2.59 µM [rising, partial curve, poor fit] |  |
| COC(=O)CCC/C=C1/SCC(NC(=O)c2ccccc2)C1=O (configuration not stated) | 29.1 µM [falling, single point] |  |
| Cc1cccc(OCC(=O)Nc2cccc(C(=O)Nc3ccccc3C(=O)O)c2)c1 | 20.6 µM [falling, single point] |  |
| O=C(NNC(=O)c1cc(Br)c(Br)s1)c1csc(N2CCOCC2)n1 | 7.31 µM [falling, partial curve, poor fit] |  |
| O=C(Nc1ccc(OCC(=O)N2CCOCC2)cc1)c1cccc(Cl)c1 | 35.5 µM [rising, single point] |  |
| O=C(NCCc1ccc(Cl)cc1)C1CCN(C(=O)c2sccc2-n2cccc2)CC1 | 9.2 µM [falling, single point] |  |
| O=C(Nc1ccccn1)c1onc2c1CCCC2 | 13 µM [falling, partial curve] |  |
| Cc1ccc2c(c1)Oc1ccc(NC(=O)CCl)cc1C(=O)N2 | 6.31 µM [falling, single point] | 22.4 µM [falling, single point] |

Whole records from above.
C=C(C)CSc1nc2c(cc1C#N)CCC2 as listed: AC50 [1]: 8.91 µM [rising, partial curve, poor fit]
Cn1c(=O)c2c(nc(NCc3ccc4c(c3)OCO4)n2Cc2ccc(F)cc2)n(C)c1=O as listed: AC50 [1]: 14.6 µM [falling, single point]
